This is an account of results in publication PMC10290057.

The chains behind the UniProt entries cited, without tags or fusion partners.
UniProt P11387: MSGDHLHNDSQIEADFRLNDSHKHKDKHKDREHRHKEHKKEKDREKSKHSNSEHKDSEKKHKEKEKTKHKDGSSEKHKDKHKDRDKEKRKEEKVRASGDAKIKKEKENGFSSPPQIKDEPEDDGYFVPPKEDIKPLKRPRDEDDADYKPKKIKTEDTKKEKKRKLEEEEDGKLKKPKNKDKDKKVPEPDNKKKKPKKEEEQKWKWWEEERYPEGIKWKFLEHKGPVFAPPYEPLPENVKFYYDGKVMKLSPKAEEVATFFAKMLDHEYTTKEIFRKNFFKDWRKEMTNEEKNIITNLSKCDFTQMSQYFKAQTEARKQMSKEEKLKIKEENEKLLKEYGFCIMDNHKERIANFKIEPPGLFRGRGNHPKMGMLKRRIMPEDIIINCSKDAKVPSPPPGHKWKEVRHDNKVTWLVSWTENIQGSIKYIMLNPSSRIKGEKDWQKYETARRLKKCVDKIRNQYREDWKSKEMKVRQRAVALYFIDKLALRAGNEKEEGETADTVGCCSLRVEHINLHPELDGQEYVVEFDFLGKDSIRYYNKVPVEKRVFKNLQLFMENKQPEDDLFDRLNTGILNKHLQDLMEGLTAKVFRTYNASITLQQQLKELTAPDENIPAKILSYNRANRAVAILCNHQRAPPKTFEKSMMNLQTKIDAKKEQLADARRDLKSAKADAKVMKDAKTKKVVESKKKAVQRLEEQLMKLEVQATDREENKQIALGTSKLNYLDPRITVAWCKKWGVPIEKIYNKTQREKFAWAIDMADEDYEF

Experiment [1] has as its target T1, DCAF13-FLAG (DDB1 and Cullin Associated Factor 13), wild type (human) (UniProt Q9NV06).
T1 sequence: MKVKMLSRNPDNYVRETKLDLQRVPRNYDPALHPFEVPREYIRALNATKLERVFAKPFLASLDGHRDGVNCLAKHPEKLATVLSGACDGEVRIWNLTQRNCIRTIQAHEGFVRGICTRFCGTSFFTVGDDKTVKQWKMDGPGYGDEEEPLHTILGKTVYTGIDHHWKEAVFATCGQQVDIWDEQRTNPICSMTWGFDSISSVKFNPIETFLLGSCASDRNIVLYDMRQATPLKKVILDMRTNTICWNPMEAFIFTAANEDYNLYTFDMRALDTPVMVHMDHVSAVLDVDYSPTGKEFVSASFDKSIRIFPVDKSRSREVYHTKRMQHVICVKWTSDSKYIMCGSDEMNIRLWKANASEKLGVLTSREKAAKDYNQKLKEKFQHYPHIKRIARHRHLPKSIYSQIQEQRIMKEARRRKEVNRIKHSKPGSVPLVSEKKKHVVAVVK
Nature of the experiment: co-IP; FLAG-IP (anti-FLAG M2, Protein A/G PLUS-agarose) from benzonase-treated lysates of HCT116 cells transfected with DCAF13-FLAG constructs, CPT (20 µM, 30 min) in presence of BTZ (1 µM); washed with RIPA buffer; immunoblot.

In experiment [2] the target is N-terminally 6×His-tagged TOP1 (topoisomerase I), full length (human) (UniProt P11387). Description: pull-down; His-tag pull-down from lysates of HCT116 cells expressing 6×His-TOP1 constructs and DCAF13-FLAG; lysate in IP lysis buffer, sonicated, benzonase-treated, then Ni-NTA-agarose overnight at 4 °C in Buffer A (6 M guanidine-HCl, 0.1 M Na2HPO4/NaH2PO4, 10 mM imidazole pH 8.0); immunoblot; cells treated with DMSO or CPT (20 µM, 30 min) ± APH (10 µM), or CPT with BTZ (1 µM).

The target is the same in experiment [3]. Nature of the experiment: proximity ligation; Duolink PLA in fixed HCT116 cells overexpressing His-TOP1 and DCAF13-FLAG, anti-His and anti-FLAG antibodies; DMSO or CPT (20 µM, 30 min).

Results are given in words; binding and its absence hold for the method and conditions named. In cells and extracts the contact can be indirect. Some results given as binding are weak or reduced against the parent protein; the word gives no strength. Where a sequence is shown, tags or fusion partners need not be part of it.

As for “TOP1, endogenous (co-precipitated with DCAF13-FLAG constructs) (from UniProt P11387 1-765) (enzyme)”, the binding entry in experiment [1] is on record as “binds”.

B1: DCAF13-FLAG (DDB1 and Cullin Associated Factor 13), wild type (protein, UniProt Q9NV06 1-445)
chain: T1 sequence
With B1, the binding result in experiment [2] and in experiment [3] was “binds” throughout.
